## Small-molecule microarray binding calls

From ROBIN, a set of small-molecule microarray screens (doi:10.1002/anie.202211358).

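Each compound is printed as two spots on a slide made to bind it covalently, so it has no test concentration; the read-out is fluorescence of the bound, labelled oligonucleotide. For the PreQ1, TPP and SAM-II riboswitches the laboratory earlier reported (doi:10.1038/s41467-019-09493-3) 1 µM RNA, 2 h, and a rule that included a mean Z-score above 3 (spot signal-to-noise against the whole library), a score well above that on a control array, and duplicate spots agreeing (coefficient of variation under 100). The data file gives only the calls; its cut-offs may differ, and compounds hitting several targets are kept. The calls come from the array alone, and fixing a compound to the slide can hide its binding.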 Key: yes = hit, no = tested without a hit. Compounds were drawn at random from those tested, without regard to their results.

Targets (5′ to 3′):
SAM-II: SAM-II riboswitch RNA pseudoknot, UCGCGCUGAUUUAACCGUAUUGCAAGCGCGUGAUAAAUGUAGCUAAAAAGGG. Hit rate about 1% of about 21,000 compounds.
PreQ1: PreQ1 riboswitch RNA pseudoknot, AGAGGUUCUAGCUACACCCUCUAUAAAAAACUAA. From B. subtilis. Hit rate about 0.7% of about 24,000 compounds.
TPP: TPP riboswitch RNA three-way junction, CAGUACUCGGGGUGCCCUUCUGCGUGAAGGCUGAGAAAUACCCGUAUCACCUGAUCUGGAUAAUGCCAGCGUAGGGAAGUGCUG. Hit rate about 0.7% of about 24,000 compounds.

| SMILES | SAM-II | PreQ1 | TPP |
|---|---|---|---|
| `CCN1CCCC(Sc2nc3c([nH]2)c(=S)n(C)c(=O)n3C)C1` (centres undefined) | no | no | no |
| `CC(C)(CNC(=O)C1CC2(CCNCC2)CN1)N1CCc2ccccc2C1` (centres undefined) | no | no | no |
| `CCn1ncnc1-c1c(-c2ccccc2)ncn1CCc1nnc(N)s1` | no | no | no |
| `CCn1c(=O)c2c(nc(C=Cc3ccc(OC)c(OC)c3)n2C)n(CC)c1=O` | no | no | no |
| `CCNC(=O)[C@@H]1C[C@H](N)CN1Cc1cnc(N2CCOCC2)nc1` | no | no | no |
| `CCOc1ccc(C2C(C#N)=C(N)Oc3[nH]nc(C)c32)cc1Br` (centres undefined) | no | no | no |
| `CCCCOP(=O)(OCCCC)C1(C)CC(=O)CC(C)(C)C1` (centres undefined) | no | no | no |
| `Nc1nnc(SCC(=O)Nc2ccc(Cl)cc2)s1` | no | no | no |
| `Cc1ccnc(NS(=O)(=O)c2ccc(N)cc2)c1` | no | no | no |
| `C=CCOCCN(CC)CC` | no | no | no |
| `COc1cc(NC(=O)CCl)ccc(=O)c1` | no | no | no |
| `CC(C)(C)CC(C)(C)NCC(=O)Nc1c2c(nc3ccccc13)CCC2` | no | no | no |
| `Nc1nc(CSCCO)nc(Nc2ccc(F)cc2)n1` | no | no | no |

Once more, the final 2:

SMILES,SAM-II,PreQ1,TPP
CC(C)(C)CC(C)(C)NCC(=O)Nc1c2c(nc3ccccc13)CCC2,no,no,no
Nc1nc(CSCCO)nc(Nc2ccc(F)cc2)n1,no,no,no